Assay [1] has as its target T1, MVH (Mouse VASA Homologue) (mouse (endogenous in male germ cells)) (UniProt Q61496).
T1 sequence: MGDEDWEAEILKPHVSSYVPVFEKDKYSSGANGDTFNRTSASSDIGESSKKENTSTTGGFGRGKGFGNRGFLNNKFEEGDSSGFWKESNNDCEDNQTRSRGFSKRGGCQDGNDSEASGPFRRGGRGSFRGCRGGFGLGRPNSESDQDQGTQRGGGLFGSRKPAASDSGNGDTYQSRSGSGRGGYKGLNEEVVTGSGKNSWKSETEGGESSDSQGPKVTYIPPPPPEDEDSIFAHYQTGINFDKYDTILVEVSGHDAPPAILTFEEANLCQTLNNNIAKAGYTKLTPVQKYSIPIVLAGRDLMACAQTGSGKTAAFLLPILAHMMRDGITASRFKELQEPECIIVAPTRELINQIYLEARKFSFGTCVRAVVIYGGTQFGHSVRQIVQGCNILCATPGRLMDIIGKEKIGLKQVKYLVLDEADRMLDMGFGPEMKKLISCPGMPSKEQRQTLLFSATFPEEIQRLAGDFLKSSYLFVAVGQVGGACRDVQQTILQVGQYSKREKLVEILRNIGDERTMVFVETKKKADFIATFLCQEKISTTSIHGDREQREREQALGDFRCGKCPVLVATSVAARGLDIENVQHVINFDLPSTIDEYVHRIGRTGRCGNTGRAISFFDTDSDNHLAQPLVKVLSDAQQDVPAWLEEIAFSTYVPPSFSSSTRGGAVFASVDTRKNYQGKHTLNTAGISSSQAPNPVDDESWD
Briefly: affinity purification with mass spectrometry; chromatoid bodies isolated from Sam68 wild-type and knockout mouse testes: cells cross-linked in 0.1% PFA, lysed in RIPA buffer and sonicated, pellet fraction immunoprecipitated with anti-MVH on Dynabeads protein G overnight at 4°C (anti-ACROSIN as control); cross-links reversed; LC-MS/MS.

Amino acid sequences for entries named in this document (tags omitted).
UniProt P61407: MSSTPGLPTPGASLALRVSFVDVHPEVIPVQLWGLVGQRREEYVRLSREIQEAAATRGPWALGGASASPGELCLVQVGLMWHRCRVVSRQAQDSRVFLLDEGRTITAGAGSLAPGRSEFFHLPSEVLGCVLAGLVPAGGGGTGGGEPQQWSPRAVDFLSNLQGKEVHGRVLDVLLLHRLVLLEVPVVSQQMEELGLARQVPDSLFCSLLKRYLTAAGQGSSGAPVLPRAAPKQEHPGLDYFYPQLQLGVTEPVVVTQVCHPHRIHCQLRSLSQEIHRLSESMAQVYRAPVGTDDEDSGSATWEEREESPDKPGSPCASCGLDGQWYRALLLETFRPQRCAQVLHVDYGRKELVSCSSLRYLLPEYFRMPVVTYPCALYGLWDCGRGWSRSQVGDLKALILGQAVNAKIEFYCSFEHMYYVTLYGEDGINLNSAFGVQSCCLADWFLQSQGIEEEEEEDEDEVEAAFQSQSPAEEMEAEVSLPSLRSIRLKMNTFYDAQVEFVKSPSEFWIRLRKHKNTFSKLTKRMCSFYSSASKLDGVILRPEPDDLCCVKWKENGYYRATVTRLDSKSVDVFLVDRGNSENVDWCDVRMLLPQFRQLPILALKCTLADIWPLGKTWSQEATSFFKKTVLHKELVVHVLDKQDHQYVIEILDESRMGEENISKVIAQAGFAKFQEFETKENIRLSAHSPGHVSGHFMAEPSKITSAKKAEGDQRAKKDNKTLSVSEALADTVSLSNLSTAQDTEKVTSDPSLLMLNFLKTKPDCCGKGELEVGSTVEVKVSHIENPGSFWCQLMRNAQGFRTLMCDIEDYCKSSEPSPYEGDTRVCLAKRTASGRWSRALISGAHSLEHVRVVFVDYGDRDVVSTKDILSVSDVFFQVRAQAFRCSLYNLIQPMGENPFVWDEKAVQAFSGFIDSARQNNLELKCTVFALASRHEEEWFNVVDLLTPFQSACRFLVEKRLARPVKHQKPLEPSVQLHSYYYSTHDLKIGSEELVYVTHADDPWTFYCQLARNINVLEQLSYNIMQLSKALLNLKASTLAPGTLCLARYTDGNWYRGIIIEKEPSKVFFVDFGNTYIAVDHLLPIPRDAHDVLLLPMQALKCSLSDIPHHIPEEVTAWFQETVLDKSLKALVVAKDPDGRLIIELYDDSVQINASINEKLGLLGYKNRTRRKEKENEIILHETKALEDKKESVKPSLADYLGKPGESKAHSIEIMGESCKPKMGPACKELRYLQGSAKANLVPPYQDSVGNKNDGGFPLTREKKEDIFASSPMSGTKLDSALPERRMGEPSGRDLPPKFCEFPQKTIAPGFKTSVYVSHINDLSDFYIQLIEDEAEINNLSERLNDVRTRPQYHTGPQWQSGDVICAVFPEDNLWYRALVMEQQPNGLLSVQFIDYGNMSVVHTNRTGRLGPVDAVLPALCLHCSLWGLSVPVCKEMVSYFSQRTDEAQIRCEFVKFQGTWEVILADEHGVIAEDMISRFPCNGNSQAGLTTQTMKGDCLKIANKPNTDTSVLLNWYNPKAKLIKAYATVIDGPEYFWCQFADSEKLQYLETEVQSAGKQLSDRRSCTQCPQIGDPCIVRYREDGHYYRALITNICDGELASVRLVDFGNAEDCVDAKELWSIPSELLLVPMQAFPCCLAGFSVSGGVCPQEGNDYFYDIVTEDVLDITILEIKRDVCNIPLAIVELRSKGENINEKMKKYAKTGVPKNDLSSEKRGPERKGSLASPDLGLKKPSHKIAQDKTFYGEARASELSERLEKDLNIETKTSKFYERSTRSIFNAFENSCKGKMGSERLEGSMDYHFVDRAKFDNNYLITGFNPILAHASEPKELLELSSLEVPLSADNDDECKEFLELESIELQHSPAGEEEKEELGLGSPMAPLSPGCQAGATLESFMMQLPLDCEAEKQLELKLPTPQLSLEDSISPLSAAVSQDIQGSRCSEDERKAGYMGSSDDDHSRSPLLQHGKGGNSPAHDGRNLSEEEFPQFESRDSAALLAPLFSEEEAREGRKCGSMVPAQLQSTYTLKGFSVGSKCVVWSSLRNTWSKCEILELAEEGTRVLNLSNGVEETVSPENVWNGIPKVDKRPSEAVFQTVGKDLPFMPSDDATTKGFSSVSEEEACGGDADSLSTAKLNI
UniProt Q60749: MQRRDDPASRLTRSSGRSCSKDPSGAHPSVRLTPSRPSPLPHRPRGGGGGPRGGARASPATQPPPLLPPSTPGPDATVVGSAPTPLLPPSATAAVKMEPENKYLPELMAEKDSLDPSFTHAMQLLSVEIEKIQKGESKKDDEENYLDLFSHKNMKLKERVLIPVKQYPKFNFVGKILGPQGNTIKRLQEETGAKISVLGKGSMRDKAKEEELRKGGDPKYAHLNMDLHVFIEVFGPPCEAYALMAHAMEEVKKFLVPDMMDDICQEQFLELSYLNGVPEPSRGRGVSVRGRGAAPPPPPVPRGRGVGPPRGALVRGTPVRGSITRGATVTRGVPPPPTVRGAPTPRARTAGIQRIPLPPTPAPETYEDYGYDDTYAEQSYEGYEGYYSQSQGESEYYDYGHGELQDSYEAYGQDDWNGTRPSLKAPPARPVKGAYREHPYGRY
UniProt P29341: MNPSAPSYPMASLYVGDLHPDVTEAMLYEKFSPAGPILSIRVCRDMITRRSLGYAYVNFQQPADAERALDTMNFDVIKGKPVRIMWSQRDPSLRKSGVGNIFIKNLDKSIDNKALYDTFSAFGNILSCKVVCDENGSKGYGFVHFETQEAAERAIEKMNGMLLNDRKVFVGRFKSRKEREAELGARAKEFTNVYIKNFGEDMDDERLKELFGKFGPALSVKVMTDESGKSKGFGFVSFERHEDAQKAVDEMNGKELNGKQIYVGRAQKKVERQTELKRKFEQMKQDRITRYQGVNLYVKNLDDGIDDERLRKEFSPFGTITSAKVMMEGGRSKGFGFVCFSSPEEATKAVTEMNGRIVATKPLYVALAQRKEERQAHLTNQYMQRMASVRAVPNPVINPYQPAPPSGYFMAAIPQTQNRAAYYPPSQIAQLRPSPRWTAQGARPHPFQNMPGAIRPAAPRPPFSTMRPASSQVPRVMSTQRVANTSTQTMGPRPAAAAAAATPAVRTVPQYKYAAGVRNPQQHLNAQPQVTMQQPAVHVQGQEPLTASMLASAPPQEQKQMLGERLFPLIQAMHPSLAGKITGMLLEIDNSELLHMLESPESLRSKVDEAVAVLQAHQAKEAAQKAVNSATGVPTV
UniProt Q9JMB7: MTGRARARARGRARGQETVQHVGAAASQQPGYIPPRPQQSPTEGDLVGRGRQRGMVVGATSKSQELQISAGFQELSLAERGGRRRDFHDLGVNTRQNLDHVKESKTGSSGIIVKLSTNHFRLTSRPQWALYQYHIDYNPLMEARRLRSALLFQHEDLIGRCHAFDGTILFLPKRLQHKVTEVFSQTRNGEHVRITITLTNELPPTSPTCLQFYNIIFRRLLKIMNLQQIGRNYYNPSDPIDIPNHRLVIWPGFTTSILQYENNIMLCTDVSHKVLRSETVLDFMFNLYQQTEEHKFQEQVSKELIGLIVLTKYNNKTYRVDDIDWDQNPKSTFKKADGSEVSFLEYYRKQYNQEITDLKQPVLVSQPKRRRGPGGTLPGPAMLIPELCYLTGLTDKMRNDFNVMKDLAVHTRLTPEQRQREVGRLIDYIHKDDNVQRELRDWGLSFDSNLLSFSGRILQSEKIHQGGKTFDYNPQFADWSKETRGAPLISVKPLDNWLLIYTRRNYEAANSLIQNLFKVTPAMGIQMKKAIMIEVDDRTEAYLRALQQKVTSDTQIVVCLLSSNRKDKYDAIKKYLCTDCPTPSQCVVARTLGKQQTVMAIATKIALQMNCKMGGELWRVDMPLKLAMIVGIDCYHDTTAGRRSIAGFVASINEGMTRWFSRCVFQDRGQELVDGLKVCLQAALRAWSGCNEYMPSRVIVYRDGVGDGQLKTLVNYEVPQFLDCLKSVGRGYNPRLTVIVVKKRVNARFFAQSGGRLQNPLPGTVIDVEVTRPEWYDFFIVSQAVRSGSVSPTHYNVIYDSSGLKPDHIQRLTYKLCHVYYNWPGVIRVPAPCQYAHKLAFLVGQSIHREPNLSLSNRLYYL

Assay [2] concerns the target T2, MVH (Mouse VASA Homologue) (mouse (endogenous in male germ cells)), Q61496.
T2 chain: T1 sequence
The assay is described as above. The conditions noted are these: remark: other sources report otherwise.

These are yes or no findings as the source states them, for the method shown. In cells and extracts the contact can be indirect. These calls come from enrichment with a bait or labelling near it, and not all partners need be listed.

Turning to TDRD6 (from UniProt P61407 1-2134), in assay [1], the binding entry was “binds”.
Same read-out and setting: then SAM68 (from UniProt Q60749 1-443), with “binds”; and PABPC1 (from UniProt P29341 1-636), with “binds”.
Still for that read-out and setting: then MIWI (from UniProt Q9JMB7 1-862), with “binds”.

B1: TDRD1 (protein, UniProt Q99MV1 1-1172)
chain: MMPRNNLEASTCKMAEPFNFEKKESKPPPQDPLRSPVAQHNHPTFRLKSPENGNTKNNFLLCEQNKQYLASQEDSSVVSSNPAVVNGEVGGSKGDRKPPPTGNPVSPLSLGNSSPPNQVKTKPSSNVTPEKSKKSHKLFENALSVNNPALFNSLGPPLRSTTCHRCGLFGSLRCSQCKQTYYCSTACQRRDWSSHSTICRPVQQSLNKLEDNKSPFETKAIEVKSEVDCPPGVTKEITAGAERVMFSDLRSLQLKKTMEIKGTVTEFKHPSNFYIQLYSSEVLENMNQLSTSLKETYANVVPEDGYLPVKGEVCVAKYTVDQTWNRAIVQAVDVLQRKAHVLYIDYGNEEMIPIDSVHPLSRGLDLFPPSAIKCCVSGVIPTAGEWSEGCVAAVKALLFEQFCSVKVMDILEEEVLTCAVDLVLQSSGKQLDHVLVEMGYGVKPGEQSSTEQSVDHSALEDVGRVTVESKIVTDRNALIPKVLTLNVGDEFCGVVAHIQTPEDFFCQQLQSGHKLAELQESLSEYCGHVIPRSDFYPTIGDVCCAQFSEDDQWYRASVLAYASEESVLVGYVDYGNFEILSLKRLCPIIPKLLDLPMQALNCVLAGVKPSLGIWTPEAVCVMKEMVQNRMVTVRVVGMLGTRALVELIDKSVAPHVSASKALIDSGFAIKEKDVADKGSSMHTASVPLAIEGPAEALEWTWVEFTVDETVDVVVCMMYSPGEFYCHFLKDDALEKLDDLNQSLADYCAQKPPNGFKAEIGRPCCAFFSGDGNWYRALVKEILPSGNVKVHFVDYGNVEEVTTDQLQAILPQFLLLPFQGMQCWLVDIQPPNKHWTKEATARFQACVVGLKLQARVVEITANGVGVELTDLSTPYPKIISDVLIREQLVLRCGSPQDSLMSRPANQHKQIDSHRVQASPSAEQWKTMELPVNKTIAANVLEIISPALFYAIPSEMSENQEKLCVLAAELLEHCNAQKGQPAYRPRTGDACCAKYTNDDFWYRAIVLETSESDVKVLYADYGNIETLPLSRVQPIPASHLELPFQIIRCSLEGPMELNGSCSQLVMELLRNAMLNQSVVLSVKAISKNVHAVSVEKCSENGMINIAENLVMCGLAENLTSKRKSASTKEIPHSRDCCCTELQKQIEKHEQILLFLLNNPTNQSKFTEMKKLLRS
In the case of B1, in assay [1], the binding result is on record as “binds”.

B2: DDX25, Q9QY15 1-484 (protein)
chain: MASLLWGGDAGAAESERLNSHFSNLVHPRKNLRGIRSTTVPNIDGSLNTEDDDDDEDDVVDLAANSLLNKLIRQSLIESSHRVEVLQKDPSSPLYSVKTFEELRLKEELLKGIYAMGFNRPSKIQEMALPMMLAHPPQNLIAQSQSGTGKTAAFVLAMLSRVNALELFPQCLCLAPTYELALQTGRVVERMGKFCVDVEVMYAIRGNRIPRGTEVTKQIIIGTPGTVLDWCFKRKLIDLTKIRVFVLDEADVMIDTQGFSDQSIRIQRALPSECQMLLFSATFEDSVWQFAERIIPDPNVIKLRKEELTLNNIRQYYVLCENRKGKYQALCNIYGGITIGQAIIFCQTRRNAKWLTVEMMQDGHQVSLLSGELTVEQRASIIQRFRDGKEKVLITTNVCARGIDVKQVTIVVNFDLPVNQSEEPDYETYLHRIGRTGRFGKKGLAFNMIEVDKLPLLMKIQDHFNSNIKQLDPEDMDEIEKIEY
For B2, the binding entry in assay [2] is reported as “binds”.

B3: MAEL (protein, UniProt Q8BVN9 1-434)
chain: MPNRRASRNAYYFFVQEKIPELRRRGLPVARVADAIPYCSADWALLREDEKEKYSEMAREWRAAQGKDSGPSEKQKLVSTPLRRPGMLVPKPSISPPDMSNLSIKSDQALLGGIFYFLNIFSHGELPPHCEQRFLPCEIGCVKYSLQEGIMADFHSFIHPGEIPRGFRFHCQAASDSSHKIPISNFEFGHDQATVLQNLYKFIHPNPGNWPPIYCKSDDRARVNWCLKRMERASEIRQDLELLTVEDLVVGIYQQKFLKEPSKTWVRSLLDVAMWDYSSNTRCKWHEENDILFCALAVCKKIAYCISNSLATLFGIQLTGAHVPLQDYEASNSVTPKMVVLDAGRYQKLRVESPGFCHFNSYNQEQRSNTSTGYYPSGVKISGPHSSVRGRGITRLLESISNSSNNIHRFSSCETSLSPYTPQKDGYKPFSSFS
On to B3, for which the binding entry in assay [1] is given as “binds”.

B4: TDRD7 (protein, UniProt Q8K1H1 1-1086)
chain: MLEADLVSKMLRAVLQSHKNGIVLPRLQGEYRSLTGDWIPFKQLGYPTLEAYLRSVPAVVRIEASRSGEIVCYAVACTETARIAQLVARQRTSKRKIGRQINCQMRVKKAMPFFLEGKPKATLRQPGFASDYSISRKPNSALLRDRGSALGVKADVDMPPYPDTPVQRHASMSANSRFSPKSSLPASFQTHISRACPTEVNDNLNQTVEKPNITPPASYTNKMDEVQNRIKEILDKHNNGIWISKLPHFYKEFYKEDLNQGVLQQFEHWPHICTVEKPCGGGQDSLLYPARREQPLKSDQDPEKELPPPPPAPKQEVPSQGSPAVMPDVKEKVAELLGKYSSGLWASALPKAFEDMYKVKFPEDALKNLASLSDVCTINYISGNTQKAILYAKLPLPTDKILKDEGQAQGDFDIKSMIEQEYLQIEKNMAESADEFLEDITVPPLVIPTEASPSVLVVELSNTNDVVIRYVGKDYSAAQELMEDEMKEFYSKNPRVTPIQTVHVGQLLAVNAEEDAWLRAQIISTDENKIKVCYVDYGFCENIEKSKAYRLNPRFCSLSFQATKCKLAGLEVLNDDPDLVKAVESLTCGKIFAVEILDKSDVPLVVLYDTSGEDDININATCLKAICDRSLQVHLQVDAMYTNVKVTNICSDGTLYCQVPCKGLNKLNDLLHKTEDYFHCKHMTSEYFISLPFCGKICLFHCKGKWLRVEITNVHSSRALDVQFLDSGNSTSVKVSELREIPPRFLQEMLAIPPQAIKCCLADLPQSIGMWTPDAVLWLRDSVLNCSDCSIKVTKMDETKGVAYVYLFTPNNFPDPHRSINRQITNADLWKHQKDVFLSAVSTAASSPGNRNGGTPAPGSPAESLRKSHPEVIKKSVLDHTSSFSLEELPPPVHLSRSGEHMDVYVPVACHPGHFVIQPWQEIHKLEVLMEEMILYYSVSEERHIAVERDQVYAAKVENKWYRVLLKGILTNGLVSVYELDYGKHELVNIRKVQPLVDVFRKLPFQAVTAQLAGVKCSQWSEEASMVFRNHVEKKALVALVQTVVEHTNPWDRKVVLYLVDTSLPDTDTWIHDFMSQYLLELSKVN
B4: in assay [1], the binding result is listed as “binds”.

Values taken from article PMC3382170.
